PubChem BioAssay AID1259272 – Sanger Institute | 2017
Screen: 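Kinome-wide siRNA search for genes whose silencing boosts targeted drug effects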 (primary screen). Cells: SW1116 human colorectal cancer cells. Reagent: siRNA pool against human genes. Treatment: anchor drugs BYL719 (1 µM), cetuximab (5 µg/ml) or trametinib (10 nM), or DMSO vehicle; exposure length not given. Read-out: 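Cell survival as a fraction of wells given a non-targeting pool, averaged over replicates; robust z-score without drug; synergy score for each of BYL719, cetuximab and trametinib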. Scale: viability z-score, no drug: higher = more cells remaining; strongly negative means essential gene; viability, no drug: higher = more viable cells; synergy score with BYL719 and synergy score with cetuximab and synergy score with trametinib: higher = stronger synthetic-lethal synergy with the drug. Rule for the call: 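a robust z-score under -3 with siRNA and no drug marks the gene essential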. Meaning of the calls: active = essential (knock-down alone); inactive = no change.
This is one part, drawn at random, of 794 deposited reagents. 7 of them (0.88%) count as active. 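Essential calls reflect knock-down without drug only, not synergy with drugs; drug exposure length not given.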 No viability above 1 is reported: the scale is capped. The record does not give: the amount of reagent, the time to read-out.

| Gene | viability z-score, no drug | viability, no drug (fraction of control) | synergy score with BYL719 | synergy score with cetuximab | synergy score with trametinib | call |
| --- | --- | --- | --- | --- | --- | --- |
| PCBP1 (poly(rC) binding protein 1) | -0.904 | 0.814 | -0.218 | -0.0496 | 0.0611 | inactive |
| NRK (Nik related kinase) | -0.216 | 0.887 | -0.0278 | 0.0417 | 0.0834 | inactive |
| MAST1 (microtubule associated serine/threonine kinase 1) | 0.842 | 1 | -0.0585 | 0.00572 | -0.0738 | inactive |
| PCK2 (phosphoenolpyruvate carboxykinase 2, mitochondrial) | 0.842 | 1 | 0.0196 | -0.0107 | -0.0708 | inactive |
| NRBP2 (nuclear receptor binding protein 2) | -0.525 | 0.854 | 0.00186 | -0.137 | -0.000708 | inactive |
| RIOK1 (RIO kinase 1) | -0.247 | 0.884 | -0.0561 | 0.0165 | 0.0452 | inactive |
| DCK (deoxycytidine kinase) | -1.76 | 0.722 | -0.0314 | -0.0863 | 0.194 | inactive |
| MARK1 (microtubule affinity regulating kinase 1) | 0.842 | 1 | 0.0433 | 0.212 | -0.024 | inactive |
| ULK1 (unc-51 like autophagy activating kinase 1) | 0.842 | 1 | 0.0472 | 0.126 | 0.234 | inactive |
| FCSK (fucose kinase) | -0.567 | 0.85 | -0.115 | -0.166 | -0.0168 | inactive |
| ARID1A (AT-rich interaction domain 1A) | 0.121 | 0.923 | -0.0898 | -0.0417 | -0.0626 | inactive |
| BMP2K (BMP2 inducible kinase) | -0.224 | 0.887 | -0.103 | -0.181 | -0.0362 | inactive |
| CAMKK1 (calcium/calmodulin dependent protein kinase kinase 1) | 0.842 | 1 | -0.0379 | -0.0154 | 0.0248 | inactive |
| CSNK2A2 (casein kinase 2 alpha 2) | 0.0794 | 0.919 | 0.109 | 0.0411 | 0.166 | inactive |
| NME7 (NME/NM23 family member 7) | 0.842 | 1 | -0.0788 | 0.0413 | 0.0321 | inactive |
| PRKCSH (PRKCSH beta subunit of glucosidase II) | 0.842 | 1 | 0.0354 | 0.08 | 0.0337 | inactive |
| SNRK (SNF related kinase) | 0.842 | 1 | 0.16 | 0.205 | 0.0833 | inactive |
| PGK1 (phosphoglycerate kinase 1) | 0.842 | 1 | -0.0599 | 0.0245 | 0.0779 | inactive |
| MAP4K1 (mitogen-activated protein kinase kinase kinase kinase 1) | -0.244 | 0.884 | -0.00696 | 0.0601 | -0.035 | inactive |
| PIM2 (Pim-2 proto-oncogene, serine/threonine kinase) | 0.0677 | 0.918 | 0.183 | 0.114 | 0.219 | inactive |

Next part, starting with the last 3 of the part before.
| Gene | viability z-score, no drug | viability, no drug (fraction of control) | synergy score with BYL719 | synergy score with cetuximab | synergy score with trametinib | call |
| --- | --- | --- | --- | --- | --- | --- |
| PGK1 (phosphoglycerate kinase 1) | 0.842 | 1 | -0.0599 | 0.0245 | 0.0779 | inactive |
| MAP4K1 (mitogen-activated protein kinase kinase kinase kinase 1) | -0.244 | 0.884 | -0.00696 | 0.0601 | -0.035 | inactive |
| PIM2 (Pim-2 proto-oncogene, serine/threonine kinase) | 0.0677 | 0.918 | 0.183 | 0.114 | 0.219 | inactive |
| STK38 (serine/threonine kinase 38) | -0.116 | 0.898 | 0.0302 | 0.00892 | 0.0379 | inactive |
| CUL1 (cullin 1) | 0.842 | 1 | -0.0357 | 0.099 | -0.169 | inactive |
| FGR (FGR proto-oncogene, Src family tyrosine kinase) | -1.22 | 0.78 | 0.0682 | 0.0451 | 0.026 | inactive |
| NME1 (NME/NM23 nucleoside diphosphate kinase 1) | 0.842 | 1 | -0.0788 | -0.00383 | -0.0405 | inactive |
| UCK2 (uridine-cytidine kinase 2) | -1.7 | 0.729 | -0.217 | -0.22 | -0.195 | inactive |
| WNK2 (WNK lysine deficient protein kinase 2) | 0.713 | 0.986 | -0.0232 | -0.0884 | -0.218 | inactive |
| RPS6KA5 (ribosomal protein S6 kinase A5) | -1.7 | 0.729 | -0.206 | -0.173 | 0.139 | inactive |
| MAP3K14 (mitogen-activated protein kinase kinase kinase 14) | -0.0856 | 0.901 | 0.0154 | -0.0266 | -0.0874 | inactive |
| ITPKB (inositol-trisphosphate 3-kinase B) | 0.842 | 1 | -0.047 | 0.0148 | -0.13 | inactive |
| PAPSS2 (3'-phosphoadenosine 5'-phosphosulfate synthase 2) | 0.232 | 0.935 | -0.097 | -0.0653 | 0.0533 | inactive |
| CRKL (CRK like proto-oncogene, adaptor protein) | -0.298 | 0.879 | -0.149 | -0.152 | 0.0724 | inactive |
| PIK3C2A | -1.52 | 0.748 | -0.0221 | -0.0146 | 0.126 | inactive |
| PNCK (pregnancy up-regulated nonubiquitous CaM kinase) | -1.5 | 0.75 | -0.259 | -0.0237 | 0.0507 | inactive |
| HK3 (hexokinase 3) | 0.842 | 1 | -0.0788 | 0.00055 | -0.0557 | inactive |
